# Reference: PMC6259618 (Molecules, 2011)
# Where a sequence shows no end group, the ends are not given. Some peptides are written in HELM: one residue between dots, names in brackets for other building blocks, links after the first $.
# Experiment: general procedure: Fmoc solid-phase peptide synthesis
# Conditions: whole synthesis, HPLC with UV detection; MALDI-TOF MS for mass
row,Substance,final HPLC purity
1,ARPNRAQDYNTN,>99%
2,C-FRPNRAQDYNTN-C,>99%
3,FAPNRAQDYNTN,>99%
4,FRANRAQDYNTN,>95%
5,FRPARAQDYNTN,>99%
6,FRPNAAQDYNTN,>95%
7,FRPNRAADYNTN,>95%
8,FRPNRAQAYNTN,>95%
9,FRPNRAQDANTNy,>95%
10,FRPNRAQDYATN,>95%
11,FRPNRAQDYNAN,>95%
12,FRPNRAQDYNTA,>95%
13,FRPNRAQDYNTN,>99%
14,FRPNRAQDYNTN-K-DOTA,>99%
15,PEPTIDE1{F.R.P.N.R.A.Y}$$$$V2.0,>95%
16,fRPNRAQDYNTN,>99%
